# According to publication PMC11749140:
# Chains of the proteins cited; added tags and fusions are not shown.
# UniProt P68373: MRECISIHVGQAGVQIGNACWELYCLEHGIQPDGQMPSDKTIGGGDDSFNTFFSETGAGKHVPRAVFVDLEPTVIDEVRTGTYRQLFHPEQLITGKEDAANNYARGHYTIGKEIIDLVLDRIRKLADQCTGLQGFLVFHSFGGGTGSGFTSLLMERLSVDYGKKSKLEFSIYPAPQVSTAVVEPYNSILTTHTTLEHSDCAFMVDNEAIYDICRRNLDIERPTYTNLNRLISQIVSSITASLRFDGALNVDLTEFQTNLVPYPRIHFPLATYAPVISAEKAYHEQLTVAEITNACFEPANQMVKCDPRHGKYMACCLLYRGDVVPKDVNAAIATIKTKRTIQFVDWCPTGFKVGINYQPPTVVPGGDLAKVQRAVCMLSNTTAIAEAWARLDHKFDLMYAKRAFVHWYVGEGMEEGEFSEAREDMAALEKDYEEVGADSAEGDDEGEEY
# No constants are given. Whether binding was seen depends on the method and setting. In cells and extracts the contact can be indirect. Some binding calls cover weakened binding; strength is not graded here.
# Target: Iqcn-3×FLAG (mouse Iqcn, FLAG-tagged, from Iqcn-3×FLAG+/+ transgenic mice) (mouse)
# Assay: co-IP; IP with testicular tissue extracts and sperm from Iqcn-3×FLAG+/+ mice (lines 7# and 13#); FLAG-tagged Iqcn
row,binding,Molecule
1,binds,Actbl2 (mouse) (from UniProt Q8BFZ3 1-376)
2,binds,Capzb (mouse) (from UniProt P47757 1-277)
3,binds,Tuba1c (mouse) (from UniProt P68373 1-449)
4,binds,"Actl7a (mouse) (protein, UniProt Q9QY84 1-440) MSLDGVWAPQTANIGDGPAKKASDQASMQTQVLQTASLKDGPAKRAVWVRRDNAETEDPVKSTMSKDRPRLEVTKAVVVDLGTGFCKCGFAGLPKPTHKISTTVGKPYMETAKTGDNRKETFVGHELFNPDIHLKLVNPLRHGIIVDWDTVQDIWEYLFRQEMKIAPEEHAVLVSDPPLSPHTNREKYAEMLFETFNTPAMHIAYQSRLSMYSYGRTSGLVVEVGHGVSYVVPIYEGYPLPSITGRLDYAGSDLTTYLMNLMNNSGKHFSEDHLGIVEDIKTRCCFVALDPIEEKKIPAPEHEIHYTLPDGKEIRLGQERFLCSEMFFKPSLIKSMQLGLHTQTVSCLNKCDIALKRDLMGNILLCGGSTMLRGFPNRLQKELSSMCPNDTPQVNVLPERDTAVWTGGSILASLQGFQPLWVHRLEYEEHGPFFLYRRCF"
